Among the data in patent publication US6447748B1, “Benzamide compounds for cancer imaging and therapy” (Research Corporation Technologies, Inc., priority 1993, dated 2002) are Ki values, retold here.

Test [1] concerns the target sigma receptors on breast tissue membranes (biopsied human tumor). Conditions: read-out: Ki against 4-[125I]BP; breast tumor biopsy membranes, 1 hr at 37° C.
Test [2] has the same target. Conditions: read-out: Ki against 2-[125I]BP; breast tumor biopsy membranes, 1 hr at 37° C.

Like-named read-outs stand apart in the source and are kept apart here.

For the compound `O=C(CCCN1CCC(O)(c2ccc(Cl)cc2)CC1)c1ccc(F)cc1` [Haloperidol], the Ki in test [1] worked out at 3.8 nM; in test [2] it was 6.3 nM.

The term Ki denotes the equilibrium dissociation constant of an inhibitor or competing ligand from its target.
